Assay results: the supplement of paper PMC4807443
Where a name gives a salt, the structure may show the parent alone. The list shows a part of the results. The numbers are fractions of the control, whatever unit the source prints. Most values lie at the level of the controls, where differences are scatter.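 A lentiviral reporter stably expressed in MIN6 mouse insulinoma beta cells uses Pdx1 and Ins1 promoters to drive separate nucleus-targeted fluorescent proteins; automated imaging with Hoechst nuclear stain counted cells. Possible hits were drugs shifting Ins1 promoter signal more than two median absolute deviations from DMSO controls, with Pdx1 activity roughly normal.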

The compounds below were run on MIN6 (assay: % Pdx1+ Ins1+ (double-positive, mature) cells relative to DMSO control (fold of DMSO control); higher = more mature Ins1 promoter-active cells). Details: 8.5 µM; 48 h; glucose 5 mM.
With `O=C(O)CCCc1ccc(N(CCCl)CCCl)cc1` [Chlorambucil] the “% Pdx1+ Ins1+” value was 0.927.
In the case of `CCCN1C[C@H](CSC)C[C@@H]2c3cccc4[nH]cc(c34)C[C@H]21` [Pergolide mesylate], the “% Pdx1+ Ins1+” value was 0.905.
For `CCCCc1ccc(C(=O)O)nc1` [Fusaric acid], the “% Pdx1+ Ins1+” value was 0.857.
`CC[C@@]1(O)C(=O)OCc2c1cc1n(c2=O)Cc2cc3ccccc3nc2-1` [Camptothecine (S,+)] was tested, and the “% Pdx1+ Ins1+” value was 0.328.
`CCC(=O)O[C@@](Cc1ccccc1)(c1ccccc1)[C@@H](C)CN(C)C` [Levopropoxyphene napsylate] was tested, and the “% Pdx1+ Ins1+” value was 0.971.
With `CN1C[C@H](C(=O)N[C@]2(C)O[C@@]3(O)[C@@H]4CCCN4C(=O)[C@H](Cc4ccccc4)N3C2=O)C[C@@H]2c3cccc4[nH]cc(c34)C[C@H]21` [Dihydroergotamine tartrate] the “% Pdx1+ Ins1+” value was 0.969.
`C[N+]1(C)[C@@H]2CC[C@H]1C[C@@H](OC(=O)C(CO)c1ccccc1)C2` (some centres undefined) [Methylatropine nitrate] was tested, and the “% Pdx1+ Ins1+” value was 1.01.
In the case of `C[N+](C)(C)CCCCCCCCCC[N+](C)(C)C` [Decamethonium bromide], the “% Pdx1+ Ins1+” value was 0.933.
For `c1ccc2nc(N3CCNCC3)ccc2c1` [Quipazine dimaleate salt], the “% Pdx1+ Ins1+” value was 0.881.
For `CCC1(CC)C(=O)C=CNC1=O` [Pyrithyldione], the “% Pdx1+ Ins1+” value was 0.887.
In the case of `C[C@@H]1NCCc2cc(O)c(O)cc21` [Salsolinol hydrobromide], the “% Pdx1+ Ins1+” value was 0.914.
`COc1ccc(Cc2nccc3cc(OC)c(OC)cc23)cc1OC` [Papaverine hydrochloride] was tested, and the “% Pdx1+ Ins1+” value was 0.921.
`COC(=O)C1=CCCN(C)C1` [Arecoline hydrobromide] was tested, and the “% Pdx1+ Ins1+” value was 0.776.
For `CC(C)(C)NCC(O)c1cc(Cl)c(N)c(Cl)c1` (centres undefined) [Clenbuterol hydrochloride], the “% Pdx1+ Ins1+” value was 0.908.
For `Fc1ccc(C(OCCN2CCN(CCCc3ccccc3)CC2)c2ccc(F)cc2)cc1`, the “% Pdx1+ Ins1+” value was 0.698.
`COc1ccc(CCN2CCC(Nc3nc4ccccc4n3Cc3ccc(F)cc3)CC2)cc1` [Astemizole] was tested, and the “% Pdx1+ Ins1+” value was 0.253.
For `CC(=O)O[C@H]1C[C@H](O[C@H]2[C@@H](O)C[C@H](O[C@H]3[C@@H](O)C[C@H](O[C@H]4CC[C@@]5(C)[C@H](CC[C@@H]6[C@@H]5C[C@@H](O)[C@]5(C)[C@@H](C7=CC(=O)OC7)CC[C@]65O)C4)O[C@@H]3C)O[C@@H]2C)O[C@H](C)[C@H]1O[C@@H]1O[C@H](CO)[C@@H](O)[C@H](O)[C@H]1O` [Lanatoside C], the “% Pdx1+ Ins1+” value was 0.928.
With `CN1C[C@H](CO)C=C2c3cccc4[nH]cc(c34)C[C@H]21` [Lysergol] the “% Pdx1+ Ins1+” value was 0.603.
In the case of `C/C=C1\C[C@@H](C)[C@](O)(CO)C(=O)OCC2=CCN3CC[C@@H](OC1=O)[C@@H]23` [Retrorsine], the “% Pdx1+ Ins1+” value was 0.869.
In the case of `CC1=C2[C@H]3OC(=O)[C@@H](C)[C@@H]3CC[C@@]2(C)C=CC1=O` [alpha-Santonin], the “% Pdx1+ Ins1+” value was 0.823.
In the case of `O[C@@H]1CCCC[C@H]1N1CCC(c2ccccc2)CC1` [L(-)-vesamicol hydrochloride], the “% Pdx1+ Ins1+” value was 0.9.
With `C[C@]12N[C@H](Cc3ccccc31)c1ccccc12` [Dizocilpine maleate] the “% Pdx1+ Ins1+” value was 1.05.
For `C[N+]1([O-])[C@@H]2C[C@@H](OC(=O)[C@H](CO)c3ccccc3)C[C@H]1[C@@H]1O[C@@H]12` (some centres undefined) [Scopolamin-N-oxide hydrobromide], the “% Pdx1+ Ins1+” value was 1.1.
With `c1cncc(C2=NCCC2)c1` [Myosmine] the “% Pdx1+ Ins1+” value was 0.926.
For `Cc1nccc2c1[nH]c1ccccc12` [Harmane hydrochloride], the “% Pdx1+ Ins1+” value was 0.94.
In the case of `CCN1C[C@]2(COC)[C@H](O)C[C@H](OC)[C@@]34[C@@H]5C[C@@]6(O)[C@H](OC(=O)c7ccccc7)[C@@H]5[C@@](OC(C)=O)([C@@H]([C@H](OC)[C@H]23)[C@@H]14)[C@@H](O)[C@@H]6OC` [Aconitine], the “% Pdx1+ Ins1+” value was 0.938.
For `O=[N+]([O-])c1cc([As](=O)(O)O)ccc1O` [Roxarsone], the “% Pdx1+ Ins1+” value was 0.978.
For `CC[C@@]1([C@@H]2O[C@@H]([C@H]3O[C@@](O)(CO)[C@H](C)C[C@@H]3C)C[C@@H]2C)CC[C@H]([C@]2(C)CC[C@]3(C[C@H](O)[C@@H](C)[C@@H]([C@@H](C)[C@@H](OC)[C@H](C)C(=O)O)O3)O2)O1` [Monensin sodium salt], the “% Pdx1+ Ins1+” value was 0.351.
`CCC1(c2ccc(N)cc2)CCC(=O)NC1=O` (centres undefined) [Glutethimide, para-amino] was tested, and the “% Pdx1+ Ins1+” value was 0.984.
For `CCn1cc(C(=O)O)c(=O)c2cc3c(cc21)OCO3` [Oxolinic acid], the “% Pdx1+ Ins1+” value was 1.14.
`C[C@]12CC[C@H](O)C[C@@H]1CC[C@@H]1[C@@H]2CC[C@]2(C)C(=O)CC[C@@H]12` [Epiandrosterone] was tested, and the “% Pdx1+ Ins1+” value was 0.829.
For `CN(C)C(=O)Oc1cc(OC(=O)N(C)C)cc(C(O)CNC(C)(C)C)c1` (centres undefined) [Bambuterol hydrochloride], the “% Pdx1+ Ins1+” value was 0.928.
For `NCC(O)c1ccc(O)cc1` (racemic) [(+,-)-Octopamine hydrochloride], the “% Pdx1+ Ins1+” value was 0.81.
`COc1ccc2c3c([nH]c2c1)C(C)=NCC3` [Harmaline hydrochloride dihydrate] was tested, and the “% Pdx1+ Ins1+” value was 0.76.
With `CN1[C@@H]2CC[C@H]1C[C@@H](OC1c3ccccc3CCc3ccccc31)C2` [Deptropine citrate] the “% Pdx1+ Ins1+” value was 0.831.
With `C[C@@H]1O[C@@H](O[C@H]2C[C@@H](O)[C@]3(CO)[C@H]4[C@H](O)C[C@]5(C)[C@@H](C6=CC(=O)OC6)CC[C@]5(O)[C@@H]4CC[C@]3(O)C2)[C@H](O)[C@H](O)[C@H]1O` [Strophantine octahydrate] the “% Pdx1+ Ins1+” value was 1.07.
For `C[C@]12CC[C@H](O)C[C@H]1CC[C@@H]1[C@@H]2C[C@@H](O)[C@]2(C)[C@@H](C3=CC(=O)OC3)CC[C@]12O` [Digoxigenin], the “% Pdx1+ Ins1+” value was 0.893.
`CC(Cc1ccccc1)NCCC(c1ccccc1)c1ccccc1` (centres undefined) [Prenylamine lactate] was tested, and the “% Pdx1+ Ins1+” value was 0.847.
In the case of `CC(=O)NC1CCSC1=O` (racemic) [N-Acetyl-DL-homocysteine Thiolactone], the “% Pdx1+ Ins1+” value was 0.856.
`Clc1ccc(C(OCCN2CCCCC2)c2ccccc2)cc1` (centres undefined) [Cloperastine hydrochloride] was tested, and the “% Pdx1+ Ins1+” value was 0.905.
For `CNCC(O)c1ccc(O)c(OC)c1` (stereo not drawn) [Metanephrine hydrochloride DL], the “% Pdx1+ Ins1+” value was 1.1.
With `COc1cc2c(c(OC)c1OC)-c1ccc(O)c(=O)cc1[C@@H](N)CC2` [Trimethylcolchicinic acid] the “% Pdx1+ Ins1+” value was 0.941.
In the case of `Cc1cccc(C)c1NC1=NCCCS1` [Xylazine], the “% Pdx1+ Ins1+” value was 0.679.
`CC(C)c1c(CN(C)C(C)Cc2ccccc2)n(C)n(-c2ccccc2)c1=O` (centres undefined) [Famprofazone] was tested, and the “% Pdx1+ Ins1+” value was 0.934.
For `C=C(C)[C@@H]1[C@H]2OC(=O)[C@@H]1[C@]1(O)C[C@H]3O[C@]34C(=O)O[C@H]2[C@]14C` [Picrotoxinin], the “% Pdx1+ Ins1+” value was 0.908.
In the case of `CO[C@H](C)[C@](O)(C(=O)OCC1=CCN2CC[C@H](O)[C@@H]12)C(C)C` [Heliotrine], the “% Pdx1+ Ins1+” value was 0.929.
In the case of `O=P1(NCCCl)OCCCN1CCCl` (centres undefined) [Ifosfamide], the “% Pdx1+ Ins1+” value was 0.967.
With `COc1cc2c(cc1OC)C(C)NCC2` (centres undefined) the “% Pdx1+ Ins1+” value was 0.872.
In the case of `NC(=O)CN1CCCC1=O` [Piracetam], the “% Pdx1+ Ins1+” value was 0.913.
For `CC(=O)OCC(=O)[C@H]1CC[C@H]2[C@@H]3CC[C@H]4C[C@H](O)CC[C@]4(C)[C@H]3C(=O)C[C@]12C` [Alfadolone acetate], the “% Pdx1+ Ins1+” value was 1.02.
`Cc1c2ccncc2c(C)c2c1[nH]c1ccccc12` [Ellipticine] was tested, and the “% Pdx1+ Ins1+” value was 0.769.
With `C=C[C@]12CN(C)[C@@H]3[C@H]4CO[C@H](C[C@H]41)[C@]1(C(=O)Nc4ccccc41)[C@@H]32` [Gelsemine] the “% Pdx1+ Ins1+” value was 0.921.
`CC(=O)OCC1=C(C(=O)O)N2C(=O)[C@@H](N)[C@H]2SC1` [Cephalosporanic acid, 7-amino] was tested, and the “% Pdx1+ Ins1+” value was 0.933.
For `COC1=C[C@@H]2C3=C([C@@H]2C1=O)[C@@H](NC(C)=O)CCc1cc(OC)c(OC)c(OC)c13` [Lumicolchicine gamma], the “% Pdx1+ Ins1+” value was 0.942.
With `CO[C@]12C[C@@H](COC(=O)c3cncc(Br)c3)CN(C)[C@@H]1Cc1cn(C)c3cccc2c13` [Nicergoline] the “% Pdx1+ Ins1+” value was 1.13.
`C[C@H]1C(=O)O[C@@H]2CCN3CC=C(COC(=O)[C@](C)(O)[C@]1(C)O)[C@H]23` [Monocrotaline] was tested, and the “% Pdx1+ Ins1+” value was 0.963.
`C[N+]12CCC(CC1)C(OC(=O)C(O)(c1ccccc1)c1ccccc1)C2` (centres undefined) [Clidinium bromide] was tested, and the “% Pdx1+ Ins1+” value was 0.882.
For `CCN1C[C@]2(COC)CC[C@H](O)[C@@]34C5C[C@@H]6[C@@H](OC)C[C@](O)(C(CC23)C14)C5[C@H]6OC(C)=O` (some centres undefined) [Condelphine], the “% Pdx1+ Ins1+” value was 1.07.
In the case of `COc1cc([C@@H]2c3cc4c(cc3[C@H](O)[C@H]3COC(=O)[C@H]23)OCO4)cc(OC)c1OC` [Podophyllotoxin], the “% Pdx1+ Ins1+” value was 0.502.
In the case of `CC[C@H]1CN2CCc3cc(OC)c(OC)cc3[C@@H]2C[C@@H]1C[C@H]1NCCc2cc(OC)c(OC)cc21` [Emetine dihydrochloride], the “% Pdx1+ Ins1+” value was 0.72.
In the case of `C[C@@H]1CC[C@H]2[C@@H](C)C(=O)O[C@@H]3O[C@@]4(C)CC[C@@H]1[C@]32OO4` [Artemisinin], the “% Pdx1+ Ins1+” value was 0.918.
`CC[C@H]1[C@@H]2C[C@H]3[C@@H]4N(C)c5ccccc5[C@]45C[C@@H]([C@@H]2[C@H]5O)N3[C@@H]1O` [Ajmaline] was tested, and the “% Pdx1+ Ins1+” value was 1.07.
For `CS(=N)(=O)CC[C@H](N)C(=O)O` (some centres undefined) [Methionine sulfoximine (L)], the “% Pdx1+ Ins1+” value was 0.96.
`CCC1(c2cccc(O)c2)CCCCN(C)C1` (centres undefined) [Meptazinol hydrochloride] was tested, and the “% Pdx1+ Ins1+” value was 0.781.
For `CCNC1(c2cccs2)CCCCC1=O` (centres undefined) [Tiletamine hydrochloride], the “% Pdx1+ Ins1+” value was 1.01.
For `COc1ccc2c(c1)[nH]c1c(C)nccc12` [Harmine hydrochloride], the “% Pdx1+ Ins1+” value was 0.865.
In the case of `COc1ccc(C[C@H]2NC[C@H](O)[C@H]2OC(C)=O)cc1` [Anisomycin], the “% Pdx1+ Ins1+” value was 0.483.
In the case of `CN1[C@@H](C[C@@H](O)c2ccccc2)CCC[C@H]1C[C@H](O)c1ccccc1` [Lobelanidine hydrochloride], the “% Pdx1+ Ins1+” value was 0.957.
`NCCc1c[nH]c2ccc(O)cc12` [Serotonin hydrochloride] was tested, and the “% Pdx1+ Ins1+” value was 0.859.
